Consider one compound from the GenesisPotency data set.

Screen size: about 390,000 compounds; about 17,000 (4.4%) were called active. Roughly 8% stayed inconclusive and do not appear here. Calls come from the whole dose curve; as a rule, active = well fitted inhibition curve with a large enough effect; inconclusive = small, poorly fitted or top-dose-only effect; inactive = no such curve, though single readings can be large or run the other way. Some of the results follow.

The assay has as its target T1, Lysine-specific demethylase 4A, Homo sapiens (UniProt O75164).
T1 sequence (whole entry): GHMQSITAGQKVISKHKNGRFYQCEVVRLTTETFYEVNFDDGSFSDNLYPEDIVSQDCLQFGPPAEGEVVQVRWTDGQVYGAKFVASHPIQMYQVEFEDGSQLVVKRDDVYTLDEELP
In words: qHTS Assay for Inhibitors of JMJD2A-Tudor Domain. Background: qHTS replaces the single test concentration by a dilution series.
In the case of `CCCC[N+](CCCC)(CCCC)CCCC.O=c1ccn([C@@H]2O[C@H](COS(=O)(=O)[O-])[C@@H](O)[C@H]2O)c(=O)[nH]1`, the outcome was inactive.
